Experimental data: the supplement of paper PMC5393889
The list shows a part of the results.

The molecules below were run on Caenorhabditis elegans N2 (assay: aldicarb interaction hit call (worm growth perturbed in combination with 10 uM aldicarb in both replicates, no effect as single agent) (binary (1 = interacts)); higher = interacts with aldicarb (growth perturbed)). Settings: first compound 1.5 µM; aldicarb concentration 10 µM; 6 days; 20 °C.

Q: Which “aldicarb interaction hit call” value does the source give for `C#CCOc1ccc(-c2nc(-c3cccnc3)no2)cc1` [wact-355] + CNC(=O)O/N=C/C(C)(C)SC [aldicarb] here?
A: The value was inactive: 0.

Q: For `CN(CCc1cnn(C)c1)Cc1nc(-c2ccc(C(F)(F)F)cc2)no1` [wact-269] + CNC(=O)O/N=C/C(C)(C)SC [aldicarb], which “aldicarb interaction hit call” value is on record?
A: Its value is inactive: 0.

Q: `COc1ccc(-c2noc(-c3ccccc3[N+](=O)[O-])n2)cc1` [wact-502] + CNC(=O)O/N=C/C(C)(C)SC [aldicarb] was tested. Which “aldicarb interaction hit call” value did it give?
A: Its value is inactive: 0.

Q: Which “aldicarb interaction hit call” value does the source give for `Cc1ccccc1-c1nc2ccc(N)cc2o1` [wact-565] + CNC(=O)O/N=C/C(C)(C)SC [aldicarb] here?
A: Its value is inactive: 0.

Q: Which “aldicarb interaction hit call” value does the source give for `CCc1ccc(-c2csc(-c3ccncc3)n2)cc1` [wact-64] + CNC(=O)O/N=C/C(C)(C)SC [aldicarb] here?
A: The value was inactive: 0.

Q: Which “aldicarb interaction hit call” value does the source give for `O=C(Nc1ccc(Cl)c(Cl)c1)OCc1ccco1` [wact-418] + CNC(=O)O/N=C/C(C)(C)SC [aldicarb] here?
A: Its value is inactive: 0.

Q: For `CCNCc1ccc(-c2ccc(F)c(Cl)c2)o1.Cl` [wact-186] + CNC(=O)O/N=C/C(C)(C)SC [aldicarb], which “aldicarb interaction hit call” value is on record?
A: Its value is inactive: 0.

Q: How did the “aldicarb interaction hit call” value turn out when `O=C(NCc1ccc(Cl)cc1Cl)c1ccccc1F` [wact-557] + CNC(=O)O/N=C/C(C)(C)SC [aldicarb] was run?
A: The value was inactive: 0.

Q: With `Clc1cc(Br)ccc1OCCCCN1CCNCC1.O=C(O)C(=O)O` [wact-79] + CNC(=O)O/N=C/C(C)(C)SC [aldicarb] as the molecule, how does the “aldicarb interaction hit call” value read?
A: The value was inactive: 0.

Q: `CN(Cc1cccn1-c1ncccn1)CC1CCN(CCc2ccc(Cl)cc2)CC1` [wact-329] + CNC(=O)O/N=C/C(C)(C)SC [aldicarb] was tested. Which “aldicarb interaction hit call” value did it give?
A: Its value is inactive: 0.

Q: How did the “aldicarb interaction hit call” value turn out when `CCOc1ccc(/C=C/C(=O)c2ccc(OC)cc2)cc1` [wact-20] + CNC(=O)O/N=C/C(C)(C)SC [aldicarb] was run?
A: The value was inactive: 0.

Q: `O=C1/C(=C/c2ccc(-c3cccc(Cl)c3)o2)SC(=S)N1C1CCS(=O)(=O)C1` (stereo unspecified) [wact-367] + CNC(=O)O/N=C/C(C)(C)SC [aldicarb] was tested. Which “aldicarb interaction hit call” value did it give?
A: Its value is inactive: 0.

Q: Which “aldicarb interaction hit call” value does the source give for `Clc1cccc(-c2noc(CN3CCC(c4ccncc4)CC3)n2)c1` [wact-321] + CNC(=O)O/N=C/C(C)(C)SC [aldicarb] here?
A: The value was inactive: 0.

Q: For `CC(NC(=O)c1ccccc1Cl)c1ccc2c(c1)CCCC2` (stereo unspecified) [wact-532] + CNC(=O)O/N=C/C(C)(C)SC [aldicarb], which “aldicarb interaction hit call” value is on record?
A: The value was inactive: 0.

Q: How did the “aldicarb interaction hit call” value turn out when `O=C(Nc1ccc([N+](=O)[O-])cc1)N1CCN(c2ccc(F)cc2)CC1` [wact-442] + CNC(=O)O/N=C/C(C)(C)SC [aldicarb] was run?
A: The value was inactive: 0.

Q: With `CN(C)CCCOc1ccc(-c2ccccc2)cc1.Cl` [wact-152] + CNC(=O)O/N=C/C(C)(C)SC [aldicarb] as the molecule, how does the “aldicarb interaction hit call” value read?
A: Its value is inactive: 0.

Q: For `CCOCC(=O)Nc1ccc(-c2nc3ccc(C)cc3s2)cc1` [wact-522] + CNC(=O)O/N=C/C(C)(C)SC [aldicarb], which “aldicarb interaction hit call” value is on record?
A: The value was inactive: 0.

Q: Which “aldicarb interaction hit call” value does the source give for `COc1ccc(NC(=O)c2ccccc2C)cc1` [wact-69] + CNC(=O)O/N=C/C(C)(C)SC [aldicarb] here?
A: Its value is inactive: 0.

Q: Which “aldicarb interaction hit call” value does the source give for `O=C(CC1c2ccccc2Oc2ccccc21)N1CCN(c2ccccn2)CC1` [wact-595] + CNC(=O)O/N=C/C(C)(C)SC [aldicarb] here?
A: Its value is inactive: 0.

Q: How did the “aldicarb interaction hit call” value turn out when `Cc1cc([N+](=O)[O-])ccc1NCc1ccccc1` [wact-594] + CNC(=O)O/N=C/C(C)(C)SC [aldicarb] was run?
A: The value was inactive: 0.

Q: How did the “aldicarb interaction hit call” value turn out when `Clc1ccc(CSc2ncccn2)cc1` [wact-74] + CNC(=O)O/N=C/C(C)(C)SC [aldicarb] was run?
A: Its value is inactive: 0.

Q: For `S=C(NCCc1ccc(Cl)cc1)Nc1ccccc1` [wact-443] + CNC(=O)O/N=C/C(C)(C)SC [aldicarb], which “aldicarb interaction hit call” value is on record?
A: Its value is inactive: 0.

Q: How did the “aldicarb interaction hit call” value turn out when `CCCn1c2ccccc2c2nnc(SCc3ccncc3)nc21` [wact-585] + CNC(=O)O/N=C/C(C)(C)SC [aldicarb] was run?
A: The value was inactive: 0.

Q: For `COc1cc(CNCCO)cc(Cl)c1OCc1ccc(Cl)cc1Cl.Cl` [wact-98] + CNC(=O)O/N=C/C(C)(C)SC [aldicarb], which “aldicarb interaction hit call” value is on record?
A: The value was inactive: 0.

Q: With `Brc1ccc(-c2nnc(-c3ccccc3)o2)cc1` [wact-425] + CNC(=O)O/N=C/C(C)(C)SC [aldicarb] as the molecule, how does the “aldicarb interaction hit call” value read?
A: Its value is active: 1.

Q: Which “aldicarb interaction hit call” value does the source give for `COc1ccc(CNc2ccc(Br)cc2)cc1` [wact-423] + CNC(=O)O/N=C/C(C)(C)SC [aldicarb] here?
A: The value was inactive: 0.
